What was measured:
Conditions in all cases: at 1 µM
[1] = target: Dual specificity testis-specific protein kinase 1 (Homo sapiens) (UniProt Q15569); assay: Selectivity interaction (KinomeScan (DiscoverX)) EUB0001581a TESK1
[2] = target: Myosin light chain kinase (Homo sapiens) (UniProt Q32MK0); assay: Selectivity interaction (KinomeScan (DiscoverX)) EUB0001581a MYLK3
[3] = target: RAF proto-oncogene serine/threonine-protein kinase (Homo sapiens) (UniProt P04049); assay: Selectivity interaction (KinomeScan (DiscoverX)) EUB0001581a RAF1
[4] = target: Dual specificity protein kinase CLK2 (Homo sapiens, UniProt P49760); assay: Selectivity interaction (KinomeScan (DiscoverX)) EUB0001581a CLK2
[5] = target: Cyclin-dependent kinase 9 (Homo sapiens, UniProt P50750); assay: Selectivity interaction (KinomeScan (DiscoverX)) EUB0001581a CDK9
[6] = target: Tyrosine-protein kinase Yes (Homo sapiens) (UniProt P07947); assay: Selectivity interaction (KinomeScan (DiscoverX)) EUB0001581a YES1
[7] = target: Cyclin-dependent kinase 11A (Homo sapiens) (UniProt Q9UQ88); assay: Selectivity interaction (KinomeScan (DiscoverX)) EUB0001581a CDK11A
[8] = target: Tyrosine-protein kinase Fer (Homo sapiens) (UniProt P16591); assay: Selectivity interaction (KinomeScan (DiscoverX)) EUB0001581a FER
[9] = target: Dual specificity tyrosine-phosphorylation-regulated kinase 1B (Homo sapiens, UniProt Q9Y463); assay: Selectivity interaction (KinomeScan (DiscoverX)) EUB0001581a DYRK1B
[10] = target: Tyrosine-protein kinase receptor TYRO3 (Homo sapiens) (UniProt Q06418); assay: Selectivity interaction (KinomeScan (DiscoverX)) EUB0001581a TYRO3
[11] = target: Phosphatidylinositol 4-phosphate 5-kinase type-1 alpha (Homo sapiens) (UniProt Q99755); assay: Selectivity interaction (KinomeScan (DiscoverX)) EUB0001581a PIP5K1A
[12] = target: Ephrin type-A receptor 7 (Homo sapiens) (UniProt Q15375); assay: Selectivity interaction (KinomeScan (DiscoverX)) EUB0001581a EPHA7
[13] = target: Ephrin type-A receptor 2 (Homo sapiens) (UniProt P29317); assay: Selectivity interaction (KinomeScan (DiscoverX)) EUB0001581a EPHA2
[14] = target: Serine/threonine-protein kinase 35 (Homo sapiens) (UniProt Q8TDR2); assay: Selectivity interaction (KinomeScan (DiscoverX)) EUB0001581a STK35
[15] = target: Mitogen-activated protein kinase kinase kinase 6 (Homo sapiens) (UniProt O95382); assay: Selectivity interaction (KinomeScan (DiscoverX)) EUB0001581a MAP3K6
[16] = target: Mitogen-activated protein kinase kinase kinase 3 (Homo sapiens) (UniProt Q99759); assay: Selectivity interaction (KinomeScan (DiscoverX)) EUB0001581a MAP3K3
[17] = target: High affinity nerve growth factor receptor (Homo sapiens, UniProt P04629); assay: Selectivity interaction (KinomeScan (DiscoverX)) EUB0001581a NTRK1
[18] = target: RAC-alpha serine/threonine-protein kinase (Homo sapiens, UniProt P31749); assay: Selectivity interaction (KinomeScan (DiscoverX)) EUB0001581a AKT1
[19] = target: Non-receptor tyrosine-protein kinase TYK2 (Homo sapiens, UniProt P29597); assay: Selectivity interaction (KinomeScan (DiscoverX)) EUB0001581a TYK2
[20] = target: G protein-coupled receptor kinase 4 (Homo sapiens) (UniProt P32298); assay: Selectivity interaction (KinomeScan (DiscoverX)) EUB0001581a GRK4
[21] = target: Maternal embryonic leucine zipper kinase (Homo sapiens) (UniProt Q14680); assay: Selectivity interaction (KinomeScan (DiscoverX)) EUB0001581a MELK
[22] = target: Death-associated protein kinase 3 (Homo sapiens) (UniProt O43293); assay: Selectivity interaction (KinomeScan (DiscoverX)) EUB0001581a DAPK3
[23] = target: Serine/threonine-protein kinase 32B (Homo sapiens) (UniProt Q9NY57); assay: Selectivity interaction (KinomeScan (DiscoverX)) EUB0001581a STK32B
[24] = target: Protein-tyrosine kinase 2-beta (Homo sapiens) (UniProt Q14289); assay: Selectivity interaction (KinomeScan (DiscoverX)) EUB0001581a PTK2B
[25] = target: Ribosomal protein S6 kinase alpha-6 (Homo sapiens, UniProt Q9UK32); assay: Selectivity interaction (KinomeScan (DiscoverX)) EUB0001581a RPS6KA6
[26] = target: Serine/threonine-protein kinase DCLK3 (Homo sapiens) (UniProt Q9C098)
[27] = target: Casein kinase I isoform gamma-1 (Homo sapiens) (UniProt Q9HCP0); assay: Selectivity interaction (KinomeScan (DiscoverX)) EUB0001581a CSNK1G1
[28] = target: Dual specificity mitogen-activated protein kinase kinase 4 (Homo sapiens) (UniProt P45985); assay: Selectivity interaction (KinomeScan (DiscoverX)) EUB0001581a MAP2K4
[29] = target: Serine/threonine-protein kinase LATS1 (Homo sapiens) (UniProt O95835); assay: Selectivity interaction (KinomeScan (DiscoverX)) EUB0001581a LATS1
[30] = target: Vascular endothelial growth factor receptor 2 (Homo sapiens, UniProt P35968); assay: Selectivity interaction (KinomeScan (DiscoverX)) EUB0001581a KDR
[31] = target: Mitogen-activated protein kinase kinase kinase 11 (Homo sapiens) (UniProt Q16584); assay: Selectivity interaction (KinomeScan (DiscoverX)) EUB0001581a MAP3K11
[32] = target: Calcium/calmodulin-dependent protein kinase kinase 1 (Homo sapiens) (UniProt Q8N5S9); assay: Selectivity interaction (KinomeScan (DiscoverX)) EUB0001581a CAMKK1
[33] = target: Tyrosine-protein kinase Blk (Homo sapiens) (UniProt P51451); assay: Selectivity interaction (KinomeScan (DiscoverX)) EUB0001581a BLK
[34] = target: LIM domain kinase 2 (Homo sapiens) (UniProt P53671); assay: Selectivity interaction (KinomeScan (DiscoverX)) EUB0001581a LIMK2
[35] = target: cAMP-dependent protein kinase catalytic subunit beta (Homo sapiens) (UniProt P22694); assay: Selectivity interaction (KinomeScan (DiscoverX)) EUB0001581a PRKACB
[36] = target: Mitogen-activated protein kinase kinase kinase 1 (Homo sapiens, UniProt Q13233); assay: Selectivity interaction (KinomeScan (DiscoverX)) EUB0001581a MAP3K1
[37] = target: CDK4/Cyclin D3 (Homo sapiens) (UniProt P11802+P30281); assay: (§1) Selectivity interaction (KinomeScan (DiscoverX)) EUB0001581a CDK4; assay type: protein-complex assay
[38] = target: Cyclin-dependent kinase 4/cyclin D1 (Homo sapiens) (UniProt P11802+P24385); assay: as §1; assay type: protein-complex assay
[39] = target: LIM domain kinase 1 (Homo sapiens) (UniProt P53667); assay: Selectivity interaction (KinomeScan (DiscoverX)) EUB0001581a LIMK1

Protein sequences, listed by entry. Tags and fused reporters are not part of them. Lines headed by an entry give the natural chain unless they say otherwise; changes in a name come on top.
UniProt P49760, whole entry, looked up: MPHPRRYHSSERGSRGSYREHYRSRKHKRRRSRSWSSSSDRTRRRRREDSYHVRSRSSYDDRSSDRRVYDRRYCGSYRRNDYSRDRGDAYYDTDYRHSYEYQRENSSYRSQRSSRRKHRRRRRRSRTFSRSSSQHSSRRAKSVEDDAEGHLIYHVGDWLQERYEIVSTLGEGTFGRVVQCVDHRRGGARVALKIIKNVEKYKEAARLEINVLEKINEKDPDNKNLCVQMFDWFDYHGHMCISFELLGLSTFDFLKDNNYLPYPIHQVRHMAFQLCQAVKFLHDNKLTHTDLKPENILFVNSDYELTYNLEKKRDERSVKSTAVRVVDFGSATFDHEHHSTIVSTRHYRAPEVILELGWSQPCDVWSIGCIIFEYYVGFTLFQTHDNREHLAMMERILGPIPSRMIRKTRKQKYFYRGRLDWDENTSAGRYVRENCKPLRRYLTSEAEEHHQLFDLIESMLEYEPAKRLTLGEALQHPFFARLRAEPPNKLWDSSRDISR
UniProt Q9Y463, whole entry, looked up: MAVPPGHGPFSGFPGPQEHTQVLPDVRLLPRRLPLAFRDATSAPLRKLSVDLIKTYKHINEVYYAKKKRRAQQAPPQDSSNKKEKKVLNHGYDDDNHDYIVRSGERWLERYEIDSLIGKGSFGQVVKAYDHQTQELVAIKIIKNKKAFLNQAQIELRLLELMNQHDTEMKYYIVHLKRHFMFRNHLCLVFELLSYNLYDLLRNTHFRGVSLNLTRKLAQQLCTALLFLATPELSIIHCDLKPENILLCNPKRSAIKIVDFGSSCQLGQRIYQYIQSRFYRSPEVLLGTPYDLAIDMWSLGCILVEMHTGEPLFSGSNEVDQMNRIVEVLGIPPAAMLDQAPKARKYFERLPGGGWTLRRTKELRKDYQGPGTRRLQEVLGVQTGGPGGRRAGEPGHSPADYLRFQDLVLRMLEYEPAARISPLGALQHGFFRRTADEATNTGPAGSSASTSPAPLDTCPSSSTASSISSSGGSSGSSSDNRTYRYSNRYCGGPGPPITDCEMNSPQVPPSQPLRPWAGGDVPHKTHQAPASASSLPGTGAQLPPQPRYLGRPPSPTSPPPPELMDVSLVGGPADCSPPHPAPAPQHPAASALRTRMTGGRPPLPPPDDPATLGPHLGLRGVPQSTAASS
UniProt Q99755: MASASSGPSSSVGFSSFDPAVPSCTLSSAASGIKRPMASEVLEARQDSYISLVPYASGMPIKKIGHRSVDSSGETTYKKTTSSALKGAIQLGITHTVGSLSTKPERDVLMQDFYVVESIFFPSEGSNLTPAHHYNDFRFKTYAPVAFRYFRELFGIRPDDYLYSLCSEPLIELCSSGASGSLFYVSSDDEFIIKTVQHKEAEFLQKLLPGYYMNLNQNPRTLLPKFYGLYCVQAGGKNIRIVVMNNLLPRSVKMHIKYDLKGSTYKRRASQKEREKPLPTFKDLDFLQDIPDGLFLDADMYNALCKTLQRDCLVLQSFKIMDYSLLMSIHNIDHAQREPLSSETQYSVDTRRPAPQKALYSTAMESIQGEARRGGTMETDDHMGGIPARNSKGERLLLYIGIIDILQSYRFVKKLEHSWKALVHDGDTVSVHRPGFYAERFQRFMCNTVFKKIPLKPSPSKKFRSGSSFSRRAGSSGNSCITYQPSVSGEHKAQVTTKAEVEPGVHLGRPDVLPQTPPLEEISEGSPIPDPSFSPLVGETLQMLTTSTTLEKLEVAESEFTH
UniProt Q14680: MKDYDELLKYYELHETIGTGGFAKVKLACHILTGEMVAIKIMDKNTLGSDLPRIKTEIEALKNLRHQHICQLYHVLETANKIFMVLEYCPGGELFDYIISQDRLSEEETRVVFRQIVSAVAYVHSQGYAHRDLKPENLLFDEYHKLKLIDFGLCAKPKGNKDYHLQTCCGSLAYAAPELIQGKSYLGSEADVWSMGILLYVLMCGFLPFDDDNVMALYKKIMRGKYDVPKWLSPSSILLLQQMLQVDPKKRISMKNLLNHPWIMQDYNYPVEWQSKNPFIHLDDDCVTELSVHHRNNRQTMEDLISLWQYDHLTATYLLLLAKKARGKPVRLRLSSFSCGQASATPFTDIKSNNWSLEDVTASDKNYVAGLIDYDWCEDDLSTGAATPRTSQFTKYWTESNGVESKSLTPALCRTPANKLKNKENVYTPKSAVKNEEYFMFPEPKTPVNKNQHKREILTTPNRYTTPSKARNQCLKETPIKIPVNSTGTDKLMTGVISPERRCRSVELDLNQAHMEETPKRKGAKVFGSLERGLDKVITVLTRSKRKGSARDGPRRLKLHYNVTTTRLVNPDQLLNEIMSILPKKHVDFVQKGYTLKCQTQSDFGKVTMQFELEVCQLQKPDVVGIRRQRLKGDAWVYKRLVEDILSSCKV
UniProt Q9UK32, whole entry: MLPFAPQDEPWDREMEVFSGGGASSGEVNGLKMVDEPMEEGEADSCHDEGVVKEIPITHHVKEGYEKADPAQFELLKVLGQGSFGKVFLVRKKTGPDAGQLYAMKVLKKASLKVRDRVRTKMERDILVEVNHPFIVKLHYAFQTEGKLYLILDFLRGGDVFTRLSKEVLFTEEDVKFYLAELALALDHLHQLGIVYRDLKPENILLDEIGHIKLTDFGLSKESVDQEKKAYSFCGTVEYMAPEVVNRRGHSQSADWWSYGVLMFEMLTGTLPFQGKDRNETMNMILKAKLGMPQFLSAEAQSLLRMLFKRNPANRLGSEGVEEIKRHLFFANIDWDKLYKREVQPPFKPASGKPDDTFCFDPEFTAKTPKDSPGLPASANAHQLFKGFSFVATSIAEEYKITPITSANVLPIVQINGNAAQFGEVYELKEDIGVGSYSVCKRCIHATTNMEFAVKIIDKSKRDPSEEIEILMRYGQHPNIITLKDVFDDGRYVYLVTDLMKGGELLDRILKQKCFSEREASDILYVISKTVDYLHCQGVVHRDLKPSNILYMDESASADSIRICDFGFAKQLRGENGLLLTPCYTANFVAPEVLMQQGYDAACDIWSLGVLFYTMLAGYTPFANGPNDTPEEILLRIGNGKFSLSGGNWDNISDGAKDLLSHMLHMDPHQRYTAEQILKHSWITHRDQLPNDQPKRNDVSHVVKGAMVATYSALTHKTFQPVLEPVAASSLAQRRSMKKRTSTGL
UniProt Q9HCP0: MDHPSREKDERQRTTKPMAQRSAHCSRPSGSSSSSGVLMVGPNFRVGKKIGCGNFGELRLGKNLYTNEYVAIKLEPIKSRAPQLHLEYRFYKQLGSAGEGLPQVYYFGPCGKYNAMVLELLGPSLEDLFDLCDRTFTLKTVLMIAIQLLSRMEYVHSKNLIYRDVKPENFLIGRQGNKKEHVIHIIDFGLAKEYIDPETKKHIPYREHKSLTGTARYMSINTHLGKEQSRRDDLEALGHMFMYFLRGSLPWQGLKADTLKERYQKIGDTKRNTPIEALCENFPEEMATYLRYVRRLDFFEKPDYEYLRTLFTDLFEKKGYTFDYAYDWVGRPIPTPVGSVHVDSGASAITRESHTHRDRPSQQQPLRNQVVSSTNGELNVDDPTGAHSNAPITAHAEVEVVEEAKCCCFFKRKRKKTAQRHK
UniProt Q13233: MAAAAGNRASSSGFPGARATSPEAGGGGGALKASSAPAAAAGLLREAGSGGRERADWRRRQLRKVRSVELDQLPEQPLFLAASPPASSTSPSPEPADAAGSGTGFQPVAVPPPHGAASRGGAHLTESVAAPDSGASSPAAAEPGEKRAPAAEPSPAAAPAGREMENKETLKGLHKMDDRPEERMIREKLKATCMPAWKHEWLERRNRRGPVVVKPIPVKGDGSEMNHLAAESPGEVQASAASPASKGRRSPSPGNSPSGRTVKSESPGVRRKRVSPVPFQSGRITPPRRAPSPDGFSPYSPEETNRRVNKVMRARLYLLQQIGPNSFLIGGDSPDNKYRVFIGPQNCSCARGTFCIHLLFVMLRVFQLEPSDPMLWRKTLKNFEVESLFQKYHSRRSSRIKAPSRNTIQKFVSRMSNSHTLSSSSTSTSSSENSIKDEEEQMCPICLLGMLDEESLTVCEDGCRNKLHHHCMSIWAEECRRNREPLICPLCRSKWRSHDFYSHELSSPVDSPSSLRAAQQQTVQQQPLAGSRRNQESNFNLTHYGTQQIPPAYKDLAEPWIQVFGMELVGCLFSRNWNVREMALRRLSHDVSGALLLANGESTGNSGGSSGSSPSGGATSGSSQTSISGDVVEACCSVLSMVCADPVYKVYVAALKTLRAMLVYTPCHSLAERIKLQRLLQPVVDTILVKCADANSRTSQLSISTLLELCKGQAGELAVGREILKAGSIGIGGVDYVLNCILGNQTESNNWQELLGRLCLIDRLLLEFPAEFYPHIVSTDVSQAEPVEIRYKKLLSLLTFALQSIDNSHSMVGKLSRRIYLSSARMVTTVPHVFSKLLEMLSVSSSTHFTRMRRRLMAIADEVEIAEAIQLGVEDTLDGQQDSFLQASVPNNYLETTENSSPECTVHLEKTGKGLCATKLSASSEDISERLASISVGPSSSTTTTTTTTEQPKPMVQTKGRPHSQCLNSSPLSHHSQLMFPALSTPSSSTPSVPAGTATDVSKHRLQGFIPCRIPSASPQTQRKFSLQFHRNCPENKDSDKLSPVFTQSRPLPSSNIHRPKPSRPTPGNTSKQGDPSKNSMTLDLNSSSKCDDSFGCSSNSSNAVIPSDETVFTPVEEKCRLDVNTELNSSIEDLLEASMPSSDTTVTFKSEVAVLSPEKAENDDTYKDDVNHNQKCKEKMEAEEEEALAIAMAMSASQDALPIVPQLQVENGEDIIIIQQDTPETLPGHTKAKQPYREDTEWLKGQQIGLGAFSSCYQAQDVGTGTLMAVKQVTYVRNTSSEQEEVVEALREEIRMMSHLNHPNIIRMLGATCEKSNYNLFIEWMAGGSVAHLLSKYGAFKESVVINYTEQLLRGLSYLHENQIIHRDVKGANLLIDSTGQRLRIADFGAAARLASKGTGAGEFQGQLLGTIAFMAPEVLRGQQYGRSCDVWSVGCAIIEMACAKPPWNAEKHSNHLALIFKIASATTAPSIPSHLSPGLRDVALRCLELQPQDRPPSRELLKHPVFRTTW
UniProt P11802: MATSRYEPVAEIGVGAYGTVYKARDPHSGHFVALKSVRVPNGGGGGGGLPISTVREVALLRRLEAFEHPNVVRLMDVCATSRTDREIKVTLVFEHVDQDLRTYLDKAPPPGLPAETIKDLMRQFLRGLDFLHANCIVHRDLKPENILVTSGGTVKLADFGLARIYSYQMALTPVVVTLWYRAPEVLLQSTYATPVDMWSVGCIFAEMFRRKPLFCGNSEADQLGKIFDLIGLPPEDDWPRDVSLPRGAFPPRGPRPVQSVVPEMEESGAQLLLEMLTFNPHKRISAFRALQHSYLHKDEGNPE
UniProt P30281: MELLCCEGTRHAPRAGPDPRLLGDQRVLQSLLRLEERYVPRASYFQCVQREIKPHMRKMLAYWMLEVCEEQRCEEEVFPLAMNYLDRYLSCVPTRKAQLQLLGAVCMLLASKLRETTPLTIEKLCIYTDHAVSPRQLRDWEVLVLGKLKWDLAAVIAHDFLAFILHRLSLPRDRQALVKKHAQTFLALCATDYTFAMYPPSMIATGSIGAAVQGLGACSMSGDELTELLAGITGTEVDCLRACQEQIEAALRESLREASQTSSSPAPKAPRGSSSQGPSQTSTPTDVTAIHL
UniProt P24385: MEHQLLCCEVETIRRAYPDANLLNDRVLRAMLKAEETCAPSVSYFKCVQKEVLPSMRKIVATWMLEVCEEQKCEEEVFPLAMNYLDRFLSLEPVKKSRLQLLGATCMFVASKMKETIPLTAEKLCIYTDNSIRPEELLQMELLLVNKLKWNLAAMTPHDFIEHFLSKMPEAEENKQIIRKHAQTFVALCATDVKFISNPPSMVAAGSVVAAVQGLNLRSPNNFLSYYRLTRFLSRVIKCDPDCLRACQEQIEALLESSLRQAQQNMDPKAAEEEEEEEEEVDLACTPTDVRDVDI
UniProt P53667: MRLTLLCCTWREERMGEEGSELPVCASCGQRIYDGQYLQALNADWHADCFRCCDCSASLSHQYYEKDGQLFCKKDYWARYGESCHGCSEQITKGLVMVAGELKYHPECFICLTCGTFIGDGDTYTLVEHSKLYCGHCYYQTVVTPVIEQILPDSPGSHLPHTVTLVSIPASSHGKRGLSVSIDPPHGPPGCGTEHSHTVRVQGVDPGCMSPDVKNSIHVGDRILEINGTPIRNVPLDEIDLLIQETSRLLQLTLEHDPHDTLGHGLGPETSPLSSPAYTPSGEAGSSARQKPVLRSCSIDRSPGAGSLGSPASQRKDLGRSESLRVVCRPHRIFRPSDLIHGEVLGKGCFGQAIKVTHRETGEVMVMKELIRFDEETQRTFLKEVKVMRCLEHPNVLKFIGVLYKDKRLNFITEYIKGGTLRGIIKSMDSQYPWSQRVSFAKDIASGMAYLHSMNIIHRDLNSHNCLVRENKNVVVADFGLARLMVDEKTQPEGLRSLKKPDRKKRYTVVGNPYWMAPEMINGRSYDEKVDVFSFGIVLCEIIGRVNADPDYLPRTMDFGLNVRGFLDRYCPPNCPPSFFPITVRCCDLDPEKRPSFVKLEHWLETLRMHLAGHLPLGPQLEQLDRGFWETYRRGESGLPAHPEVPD

Compound `C[C@@H]1C[C@H](N)C[C@H](c2ccncc2NC(=O)c2ccc(F)c(-c3c(F)cccc3F)n2)C1` has a % of control [1] of 100%, a % of control [2] of 83% and a % of control [3] of 98%. For the same compound, the % of control [4] was 52%, the % of control [5] was 100% and the % of control [6] was 100%. The % of control [7] was 100%, the % of control [8] was 100% and the % of control [9] was 100%. It also gave a % of control [10] of 100%, a % of control [11] of 100% and a % of control [12] of 93%. It also gave a % of control [13] of 100%, a % of control [14] of 100% and a % of control [15] of 100%. It also gave a % of control [16] of 100%, a % of control [17] of 90% and a % of control [18] of 100%. The % of control [19] was 93%, the % of control [20] was 92% and the % of control [21] was 78%. For the same compound, the % of control [22] was 97%, the % of control [23] was 100% and the % of control [24] was 100%. The % of control [25] was 84%, the % of control [26] was 94% and the % of control [27] was 84%. For the same compound, the % of control [28] was 75%, the % of control [29] was 93% and the % of control [30] was 98%. For the same compound, the % of control [31] was 100%, the % of control [32] was 100% and the % of control [33] was 89%. For the same compound, the % of control [34] was 100%, the % of control [35] was 97% and the % of control [36] was 91%. It also gave a % of control [37] of 100%, a % of control [38] of 100% and a % of control [39] of 100%.

— ChEMBL document CHEMBL5465560, “Selectivity Literature for EUbOPEN Chemogenomic Library” (2024)
